# Laboratory results taken from patent publication EP1171107B1, “USE OF A PHARMACEUTICAL COMPOSITION IN THE MANUFACTURE OF A MEDICAMENT FOR THE TREATMENT OF PATHOLOGICAL CONDITIONS OF THE EYE CAUSED BY BACTERIA, VIRUSES, FUNGI, YEASTS AND PROTOZOA” (Dr. GERHARD MANN chem.-pharm. Fabrik GmbH, priority 1999, dated 2000).
# Structures can show the parent of a compound that is named as a salt.
# Test system: Alle Testkeime
# Assay: Overall assessment: time until all test germs are eliminated (count and enrichment)
# Assay type: cell-based
# Conditions: time after inoculation; all six test germs
structure (smiles),measurement,value
"O=C(O)c1cn(C2CC2)c2cc(N3CCNCC3)c(F)cc2c1=O [Ciprofloxacin HCl 0,35 Gew.-%, Ciprofloxacin HCl, reference compound]",Testkeime nach Inokulation der Zubereitung auch qualitativ nicht mehr nachweisbar,24 Stunden
